From paper doi:10.1101/2023.09.23.558792
No constants are given. Whether binding was seen depends on the method and setting. In cells and extracts the contact can be indirect. Some entries that bind do so weakly or less than the wild type.

By UniProt entry, the sequences of proteins in these tests, tags left out.
UniProt Q03135: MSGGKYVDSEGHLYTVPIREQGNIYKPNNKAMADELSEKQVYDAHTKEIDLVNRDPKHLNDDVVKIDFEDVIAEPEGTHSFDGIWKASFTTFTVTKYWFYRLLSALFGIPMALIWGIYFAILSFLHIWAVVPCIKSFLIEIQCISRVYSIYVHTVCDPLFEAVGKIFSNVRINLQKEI
UniProt O00429: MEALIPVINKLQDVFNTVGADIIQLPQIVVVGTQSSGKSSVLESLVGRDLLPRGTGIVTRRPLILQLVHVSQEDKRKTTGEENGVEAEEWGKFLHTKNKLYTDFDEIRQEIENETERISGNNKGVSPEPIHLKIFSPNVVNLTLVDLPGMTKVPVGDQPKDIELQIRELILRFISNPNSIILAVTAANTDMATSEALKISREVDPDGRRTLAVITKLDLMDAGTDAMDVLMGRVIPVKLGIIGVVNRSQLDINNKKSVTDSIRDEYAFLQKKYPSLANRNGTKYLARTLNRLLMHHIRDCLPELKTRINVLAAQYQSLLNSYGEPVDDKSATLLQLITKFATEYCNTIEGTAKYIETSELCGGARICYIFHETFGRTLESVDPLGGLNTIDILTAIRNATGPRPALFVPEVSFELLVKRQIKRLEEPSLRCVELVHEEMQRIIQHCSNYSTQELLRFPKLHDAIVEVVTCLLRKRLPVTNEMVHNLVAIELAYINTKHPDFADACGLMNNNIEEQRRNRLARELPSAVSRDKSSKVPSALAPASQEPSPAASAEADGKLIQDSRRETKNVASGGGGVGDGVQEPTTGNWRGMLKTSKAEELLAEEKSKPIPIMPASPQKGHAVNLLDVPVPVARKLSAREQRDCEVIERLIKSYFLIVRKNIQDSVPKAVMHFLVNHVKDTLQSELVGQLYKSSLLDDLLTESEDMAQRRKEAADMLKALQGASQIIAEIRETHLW

Molecular target: Caveolin-1 (human (endogenous in iPSC-derived NPCs)) (UniProt Q03135)
Assay: co-IP

binding: binds
Substance: dynamin-related protein 1 (from UniProt O00429 1-736)
